The results in this text go back to the supplement of paper PMC11348887.

Conditions in all cases: 5 µM; treatment: days 7-14 after plating, readout day 21
Assay [1] relates to hPSC-derived cortical neurons (WA09). Nature of the assay: nucleus area z-score vs screen plate; higher = larger nuclei (more mature).
Assay [2] has the same test system. Nature of the assay: total neurite length per nucleus (MAP2) z-score; higher = more neurite growth.
For assay [3] the test system is unchanged. Nature of the assay: nucleus roundness z-score vs screen plate; higher = rounder nuclei (more mature).
For assay [4] the test system is unchanged. As to the kind of experiment: KCl-induced FOS+/EGR-1+ double-positive nuclei fraction z-score (KCl minus unstimulated); higher = stronger activity-induced IEG response.

Structures can show the parent of a compound that is named as a salt. This is one part of the list. Most values lie at the level of the controls, where differences are scatter.

With `OC[C@@H](O)[C@@H](O)CO` [Erythritol], in assay [1], the nucleus area z-score is 0.407. In addition, the “total neurite length per nucleus (z-score)” value in assay [2] was -0.254. Moreover, the nucleus roundness z-score in assay [3] was determined as 0.161. The “KCl-induced FOS+/EGR-1+ double-positive nuclei fraction z-score” value in assay [4] is 2.65.
In the case of `O=c1cc(-c2ccccc2)oc2c(O)c(O)ccc12` [7,8-Dihydroxyflavone], the nucleus area z-score in assay [1] is 0.539. Also, in assay [2], the “total neurite length per nucleus (z-score)” value is 0.646. In addition, the nucleus roundness z-score in assay [3] came out at 1.19. For the same compound, in assay [4], the “KCl-induced FOS+/EGR-1+ double-positive nuclei fraction z-score” value is -0.371.
For `COc1cc2ncnc(Nc3ccc(F)c(Cl)c3)c2cc1OCCCN1CCOCC1` [Gefitinib (ZD1839)] the same measures were 0.0365, 0.0189, -0.0623 and 1.23.
Take `CCN(c1cc(C#CCN2CCOCC2)cc(C(=O)NCc2c(C)cc(C)[nH]c2=O)c1C)[C@H]1CC[C@H](N(C)CCOC)CC1`: the nucleus area z-score in assay [1] stood at 1.27. Further, the “total neurite length per nucleus (z-score)” value in assay [2] was found to be 1.21. In assay [3], this compound had a nucleus roundness z-score of 0.651. In addition, in assay [4], the “KCl-induced FOS+/EGR-1+ double-positive nuclei fraction z-score” value was determined as 0.71.
In the case of `O=C(CCCCCCNC(=O)c1cnc(N(c2ccccc2)c2ccccc2)nc1)NO` [Rocilinostat (ACY-1215)], the nucleus area z-score in assay [1] was -3.41. Also, the “total neurite length per nucleus (z-score)” value in assay [2] was -0.211. Besides, the nucleus roundness z-score in assay [3] was -1.76. The “KCl-induced FOS+/EGR-1+ double-positive nuclei fraction z-score” value in assay [4] was determined as 0.451.
Compound `CCCCCN(C)CCC(O)(P(=O)(O)O)P(=O)(O)O` [Ibandronate sodium] displayed a nucleus area z-score in assay [1] of 1.52. Besides, the “total neurite length per nucleus (z-score)” value in assay [2] was 0.00763. Further, the nucleus roundness z-score in assay [3] is -0.135. The “KCl-induced FOS+/EGR-1+ double-positive nuclei fraction z-score” value in assay [4] was -0.344.
On the same counts, the results for `O=C(O)CCNC(=O)c1ccccc1` [Betamipron] are 1.67, -0.151, -0.637 and 0.302.
For `Cc1cc(O)c2c(c1)C(=O)c1cccc(O)c1C2=O` [Chrysophanic Acid] the same measures were 0.39, 0.102, 0.381 and -0.334.
In assay [1], `O=C(NCC1(c2nc(-c3ccccc3)cs2)CCOCC1)c1cccc(-c2noc(C(F)(F)F)n2)c1` showed a nucleus area z-score of 0.999. The “total neurite length per nucleus (z-score)” value in assay [2] amounted to 0.607. The compound further registered a nucleus roundness z-score in assay [3] of -0.563. Besides, the “KCl-induced FOS+/EGR-1+ double-positive nuclei fraction z-score” value in assay [4] was 0.917.
Compound `CCC(C)(C)c1ccc(CC(C)CN2C[C@@H](C)O[C@@H](C)C2)cc1` (some centres not stated) [Amorolfine HCl] yielded a nucleus area z-score in assay [1] of -2.23. The “total neurite length per nucleus (z-score)” value in assay [2] was -3.82. The nucleus roundness z-score in assay [3] is -5.12. Also, in assay [4], the “KCl-induced FOS+/EGR-1+ double-positive nuclei fraction z-score” value is -0.428.
On the same counts, the results for `Nc1nc(NC2CC2)cc(-c2cccc(Cl)c2Cl)n1` are 0.00532, -0.0206, -1.92 and 1.61.
Compound `CCN(CC)CC#CCOC(=O)C(O)(c1ccccc1)C1CCCCC1` (configuration not stated) [Oxybutynin chloride] came in with a nucleus area z-score in assay [1] of -0.705. In addition, the “total neurite length per nucleus (z-score)” value in assay [2] turned out to be 0.00772. This compound also came in with a nucleus roundness z-score in assay [3] of 0.66. In addition, in assay [4], the “KCl-induced FOS+/EGR-1+ double-positive nuclei fraction z-score” value came out at 0.991.
`Clc1ccc(C(c2ccccc2Cl)C(Cl)Cl)cc1` (configuration not stated) [Mitotane] gave a nucleus area z-score in assay [1] of 0.489. Further, the “total neurite length per nucleus (z-score)” value in assay [2] was determined as 0.319. The nucleus roundness z-score in assay [3] was -0.542. Moreover, in assay [4], the “KCl-induced FOS+/EGR-1+ double-positive nuclei fraction z-score” value was 0.106.
Compound `CCCC(CCC)C(=O)O` [Valproic acid sodium salt (Sodium valproate)] gave a nucleus area z-score in assay [1] of 0.363. In addition, in assay [2], the “total neurite length per nucleus (z-score)” value was determined as 1.33. The compound further came in with a nucleus roundness z-score in assay [3] of 0.751. The “KCl-induced FOS+/EGR-1+ double-positive nuclei fraction z-score” value in assay [4] amounted to 0.294.
For the compound `O=C(Nc1c(Cl)cncc1Cl)c1ccc(OC(F)F)c(OCC2CC2)c1` [Roflumilast], the nucleus area z-score in assay [1] is 1.57. Moreover, the “total neurite length per nucleus (z-score)” value in assay [2] is -1.06. For the same compound, the nucleus roundness z-score in assay [3] was -0.0255. The “KCl-induced FOS+/EGR-1+ double-positive nuclei fraction z-score” value in assay [4] is -1.49.
In assay [1], `O=C(O[C@@H]1Cc2c(O)cc(O)cc2O[C@@H]1c1cc(O)c(O)c(O)c1)c1cc(O)c(O)c(O)c1` [(-)-Epigallocatechin Gallate] showed a nucleus area z-score of 1.26. Also, the “total neurite length per nucleus (z-score)” value in assay [2] was -1.03. Also, the nucleus roundness z-score in assay [3] amounted to 0.574. For the same compound, the “KCl-induced FOS+/EGR-1+ double-positive nuclei fraction z-score” value in assay [4] was 0.879.
On the same counts, the results for `OC[C@H]1O[C@@H](O[C@@H]2[C@@H](CO)OC(O)(CO)[C@H]2O)[C@H](O)[C@@H](O)[C@H]1O` (mixture of isomers) [Lactulose] are 0.196, 0.0394, -0.168 and -0.123.
In turn, `O=C1CN2Cc3c(ccc(Cl)c3Cl)N=C2N1` [Anagrelide HCl] yielded a nucleus area z-score in assay [1] of -0.941. Further, in assay [2], the “total neurite length per nucleus (z-score)” value was 0.287. In assay [3], the nucleus roundness z-score came out at 0.219. The “KCl-induced FOS+/EGR-1+ double-positive nuclei fraction z-score” value in assay [4] was -1.02.
For `COc1cccc2cc(-c3nc([C@H]4CC[C@H](C(=O)O)CC4)n4ncnc(N)c34)[nH]c12` the same measures were -0.565, -0.641, -1.28 and -0.0869.
In turn, `CCOc1ccc(Cc2cc([C@@H]3O[C@H](CO)[C@@H](O)[C@H](O)[C@H]3O)ccc2Cl)cc1` [Dapagliflozin] gave a nucleus area z-score in assay [1] of -0.242. Besides, the “total neurite length per nucleus (z-score)” value in assay [2] is 2.03. The compound further came in with a nucleus roundness z-score in assay [3] of 1.04. In addition, the “KCl-induced FOS+/EGR-1+ double-positive nuclei fraction z-score” value in assay [4] was 1.75.
On the same counts, the results for `CC(=O)N[C@@H](CCC(N)=O)C(=O)O` [Aceglutamide] are 0.213, 0.538, 0.143 and 1.28.
For the compound `O=C(c1ccc(OCCN2CCCCC2)cc1)c1c(-c2ccc(O)cc2)sc2cc(O)ccc12` [Raloxifene HCl], the nucleus area z-score in assay [1] is 0.972. Further, the “total neurite length per nucleus (z-score)” value in assay [2] is -1.6. The nucleus roundness z-score in assay [3] was 0.149. Besides, the “KCl-induced FOS+/EGR-1+ double-positive nuclei fraction z-score” value in assay [4] was 0.0885.
For `O=c1[nH]c(=O)c2ccccc2o1` [Carsalam] the same measures were -0.293, -0.4, -0.00127 and 0.0787.
For `CN1CCC(=C2c3ccccc3CC(=O)c3sccc32)CC1` [Ketotifen Fumarate] the same measures were -0.848, 0.00877, 0.997 and -1.03.
`COc1cc(C(=O)N2CCC(N3CCN(C)CC3)CC2)ccc1Nc1ncc2c(n1)N(C)c1ccccc1C(=O)N2C`: in assay [1], the nucleus area z-score was -3.44. The “total neurite length per nucleus (z-score)” value in assay [2] is -1.37. The compound further had a nucleus roundness z-score in assay [3] of -3.04. The “KCl-induced FOS+/EGR-1+ double-positive nuclei fraction z-score” value in assay [4] was -0.826.
In assay [1], `N#CC(=C(/N)Sc1ccccc1N)/C(C#N)=C(\N)Sc1ccccc1N` had a nucleus area z-score of -0.169. Moreover, the “total neurite length per nucleus (z-score)” value in assay [2] is -0.234. In assay [3], the nucleus roundness z-score was -0.0467. Also, the “KCl-induced FOS+/EGR-1+ double-positive nuclei fraction z-score” value in assay [4] was -0.51.
On to `COc1ccc(CCC(=O)Nc2nc3ccc(Cl)cc3s2)cc1OC`, for which the nucleus area z-score in assay [1] is 0.79. Moreover, the “total neurite length per nucleus (z-score)” value in assay [2] came out at 0.0532. In addition, the nucleus roundness z-score in assay [3] amounted to 0.35. Moreover, the “KCl-induced FOS+/EGR-1+ double-positive nuclei fraction z-score” value in assay [4] was determined as 1.48.
`CCCCC1C(=O)N(c2ccccc2)N(c2ccccc2)C1=O` [Phenylbutazone] showed a nucleus area z-score in assay [1] of -1.13. Further, the “total neurite length per nucleus (z-score)” value in assay [2] was found to be 0.268. For the same compound, the nucleus roundness z-score in assay [3] is -0.947. In addition, the “KCl-induced FOS+/EGR-1+ double-positive nuclei fraction z-score” value in assay [4] is -0.619.
